The supplement of paper PMC6411743
± gives the standard deviation of the averaged measurements. This is a selection; strong and weak results do not stand in their true shares. Most values lie at the level of the controls, where differences are scatter.

Sequences of proteins named here, by UniProt entry; tags and fusion partners are left off. A change or cut given only in a name is not applied to a line headed by its entry.
UniProt Q9Y6X9: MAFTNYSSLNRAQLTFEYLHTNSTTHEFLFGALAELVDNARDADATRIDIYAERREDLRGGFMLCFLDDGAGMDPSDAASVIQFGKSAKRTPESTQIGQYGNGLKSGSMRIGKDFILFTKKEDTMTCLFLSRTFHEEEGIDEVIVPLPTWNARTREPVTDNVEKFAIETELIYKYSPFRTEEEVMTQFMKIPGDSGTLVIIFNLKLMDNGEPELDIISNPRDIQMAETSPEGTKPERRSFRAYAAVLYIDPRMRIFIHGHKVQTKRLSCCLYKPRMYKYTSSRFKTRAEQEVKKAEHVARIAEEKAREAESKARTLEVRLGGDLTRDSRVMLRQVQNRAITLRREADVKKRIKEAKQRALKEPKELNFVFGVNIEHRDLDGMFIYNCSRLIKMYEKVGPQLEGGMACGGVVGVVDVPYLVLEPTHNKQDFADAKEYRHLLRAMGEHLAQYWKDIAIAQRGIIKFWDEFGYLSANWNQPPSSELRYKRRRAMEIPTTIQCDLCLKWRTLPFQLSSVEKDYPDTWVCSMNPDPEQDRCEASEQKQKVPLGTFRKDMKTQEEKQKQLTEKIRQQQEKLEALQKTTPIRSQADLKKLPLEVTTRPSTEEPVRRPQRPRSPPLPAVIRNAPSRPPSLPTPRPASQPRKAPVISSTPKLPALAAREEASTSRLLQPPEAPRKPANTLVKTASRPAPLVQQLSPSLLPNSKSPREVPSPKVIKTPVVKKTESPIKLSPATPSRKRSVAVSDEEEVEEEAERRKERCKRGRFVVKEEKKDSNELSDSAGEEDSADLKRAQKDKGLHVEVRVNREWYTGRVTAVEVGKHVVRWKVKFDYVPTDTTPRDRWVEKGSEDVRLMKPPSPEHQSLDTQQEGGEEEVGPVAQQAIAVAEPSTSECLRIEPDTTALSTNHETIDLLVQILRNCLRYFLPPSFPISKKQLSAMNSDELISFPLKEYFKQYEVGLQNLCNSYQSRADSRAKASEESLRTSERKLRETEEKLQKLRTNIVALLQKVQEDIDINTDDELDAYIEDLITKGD
UniProt Q9Y2G3: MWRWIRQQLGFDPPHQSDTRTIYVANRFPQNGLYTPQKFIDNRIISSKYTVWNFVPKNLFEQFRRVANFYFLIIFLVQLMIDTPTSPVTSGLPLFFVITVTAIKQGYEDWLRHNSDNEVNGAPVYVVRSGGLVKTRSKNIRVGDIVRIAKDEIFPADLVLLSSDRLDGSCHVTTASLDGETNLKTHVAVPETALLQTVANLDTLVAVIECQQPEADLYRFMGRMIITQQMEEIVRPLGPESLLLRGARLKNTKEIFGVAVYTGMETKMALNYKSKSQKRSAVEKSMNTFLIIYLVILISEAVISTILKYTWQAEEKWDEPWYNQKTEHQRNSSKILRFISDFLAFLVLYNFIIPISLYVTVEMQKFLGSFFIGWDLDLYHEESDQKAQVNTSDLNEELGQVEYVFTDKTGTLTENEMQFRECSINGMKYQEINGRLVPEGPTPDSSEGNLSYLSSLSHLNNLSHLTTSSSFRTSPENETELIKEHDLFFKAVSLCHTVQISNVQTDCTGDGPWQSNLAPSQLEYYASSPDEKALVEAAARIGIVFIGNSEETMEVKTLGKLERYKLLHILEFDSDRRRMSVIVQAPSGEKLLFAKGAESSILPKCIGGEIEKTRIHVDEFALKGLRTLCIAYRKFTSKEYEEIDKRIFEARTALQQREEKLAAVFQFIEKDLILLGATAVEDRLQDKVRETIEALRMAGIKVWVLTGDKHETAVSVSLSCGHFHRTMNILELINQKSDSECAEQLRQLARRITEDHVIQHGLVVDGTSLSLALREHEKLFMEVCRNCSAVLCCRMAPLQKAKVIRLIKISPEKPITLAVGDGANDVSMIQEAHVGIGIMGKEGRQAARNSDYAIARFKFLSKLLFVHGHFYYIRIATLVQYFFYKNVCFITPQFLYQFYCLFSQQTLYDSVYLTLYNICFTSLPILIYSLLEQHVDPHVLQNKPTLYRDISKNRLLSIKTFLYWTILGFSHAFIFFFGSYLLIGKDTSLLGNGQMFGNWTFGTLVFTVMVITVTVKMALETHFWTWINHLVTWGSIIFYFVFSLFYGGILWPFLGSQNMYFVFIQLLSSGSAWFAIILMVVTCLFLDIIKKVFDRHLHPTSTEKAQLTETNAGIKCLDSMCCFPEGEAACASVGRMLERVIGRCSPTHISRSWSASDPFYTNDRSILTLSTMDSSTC
UniProt Q9Y3E0: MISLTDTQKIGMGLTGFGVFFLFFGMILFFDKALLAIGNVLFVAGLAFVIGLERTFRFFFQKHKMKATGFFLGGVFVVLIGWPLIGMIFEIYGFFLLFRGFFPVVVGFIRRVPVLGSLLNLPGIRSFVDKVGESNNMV
UniProt Q9Y4B5: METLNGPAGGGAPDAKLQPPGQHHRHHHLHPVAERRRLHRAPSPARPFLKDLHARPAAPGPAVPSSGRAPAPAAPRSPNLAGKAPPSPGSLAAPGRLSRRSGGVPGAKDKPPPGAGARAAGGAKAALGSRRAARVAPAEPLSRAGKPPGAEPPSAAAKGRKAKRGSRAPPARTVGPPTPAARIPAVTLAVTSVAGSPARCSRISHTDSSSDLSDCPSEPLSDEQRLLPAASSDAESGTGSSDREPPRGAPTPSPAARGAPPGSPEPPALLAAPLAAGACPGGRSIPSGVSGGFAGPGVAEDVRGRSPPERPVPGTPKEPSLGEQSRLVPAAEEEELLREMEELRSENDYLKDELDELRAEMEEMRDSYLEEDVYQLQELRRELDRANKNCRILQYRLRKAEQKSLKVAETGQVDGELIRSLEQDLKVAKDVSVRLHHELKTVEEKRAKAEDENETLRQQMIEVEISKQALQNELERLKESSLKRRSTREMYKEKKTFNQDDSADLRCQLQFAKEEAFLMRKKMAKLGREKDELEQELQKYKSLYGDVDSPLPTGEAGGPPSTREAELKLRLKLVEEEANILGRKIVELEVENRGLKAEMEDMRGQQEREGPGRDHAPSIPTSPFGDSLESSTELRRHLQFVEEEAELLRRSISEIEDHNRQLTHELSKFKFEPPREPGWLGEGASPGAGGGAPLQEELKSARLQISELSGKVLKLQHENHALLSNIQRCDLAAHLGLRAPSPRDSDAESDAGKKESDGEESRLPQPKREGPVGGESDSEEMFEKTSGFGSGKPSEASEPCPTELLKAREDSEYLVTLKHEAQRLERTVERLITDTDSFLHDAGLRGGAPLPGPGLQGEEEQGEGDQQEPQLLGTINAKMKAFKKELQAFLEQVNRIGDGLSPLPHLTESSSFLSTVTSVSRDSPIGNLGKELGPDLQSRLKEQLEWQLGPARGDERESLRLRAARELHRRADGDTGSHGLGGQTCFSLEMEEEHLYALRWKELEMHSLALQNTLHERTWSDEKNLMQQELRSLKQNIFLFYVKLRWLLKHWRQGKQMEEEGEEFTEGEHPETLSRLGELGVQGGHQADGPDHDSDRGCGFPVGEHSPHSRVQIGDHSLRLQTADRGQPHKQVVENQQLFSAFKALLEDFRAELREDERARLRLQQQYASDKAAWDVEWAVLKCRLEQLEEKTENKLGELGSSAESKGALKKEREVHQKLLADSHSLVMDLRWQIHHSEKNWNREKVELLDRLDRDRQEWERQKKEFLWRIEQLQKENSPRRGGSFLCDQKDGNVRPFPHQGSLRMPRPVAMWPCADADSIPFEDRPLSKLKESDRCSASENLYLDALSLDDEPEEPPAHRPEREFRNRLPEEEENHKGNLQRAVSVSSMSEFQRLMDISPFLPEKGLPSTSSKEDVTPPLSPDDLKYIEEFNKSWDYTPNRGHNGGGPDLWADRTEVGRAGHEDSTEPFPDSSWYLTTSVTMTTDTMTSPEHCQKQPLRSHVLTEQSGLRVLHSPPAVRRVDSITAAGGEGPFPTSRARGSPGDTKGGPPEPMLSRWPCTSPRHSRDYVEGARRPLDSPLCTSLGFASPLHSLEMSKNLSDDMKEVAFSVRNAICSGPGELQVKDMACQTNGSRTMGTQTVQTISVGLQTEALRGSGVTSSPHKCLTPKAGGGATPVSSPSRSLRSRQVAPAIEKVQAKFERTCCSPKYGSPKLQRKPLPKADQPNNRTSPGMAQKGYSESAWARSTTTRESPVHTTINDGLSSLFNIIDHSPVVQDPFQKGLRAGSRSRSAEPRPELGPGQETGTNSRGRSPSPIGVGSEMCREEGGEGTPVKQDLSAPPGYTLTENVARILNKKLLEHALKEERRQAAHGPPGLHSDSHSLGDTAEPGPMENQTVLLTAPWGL
UniProt Q9Y6M5: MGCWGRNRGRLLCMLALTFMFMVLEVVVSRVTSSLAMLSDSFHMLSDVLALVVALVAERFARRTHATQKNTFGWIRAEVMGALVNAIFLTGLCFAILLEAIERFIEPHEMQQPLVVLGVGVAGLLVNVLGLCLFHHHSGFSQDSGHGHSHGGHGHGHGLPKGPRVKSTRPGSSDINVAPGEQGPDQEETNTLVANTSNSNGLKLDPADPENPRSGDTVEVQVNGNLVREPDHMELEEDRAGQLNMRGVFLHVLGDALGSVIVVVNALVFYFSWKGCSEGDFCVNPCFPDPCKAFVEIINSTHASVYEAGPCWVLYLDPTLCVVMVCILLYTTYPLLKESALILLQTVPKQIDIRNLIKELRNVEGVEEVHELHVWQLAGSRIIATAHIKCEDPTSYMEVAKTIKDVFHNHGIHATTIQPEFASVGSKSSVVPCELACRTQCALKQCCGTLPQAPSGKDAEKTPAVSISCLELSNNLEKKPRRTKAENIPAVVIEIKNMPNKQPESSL
UniProt Q9Y4F3: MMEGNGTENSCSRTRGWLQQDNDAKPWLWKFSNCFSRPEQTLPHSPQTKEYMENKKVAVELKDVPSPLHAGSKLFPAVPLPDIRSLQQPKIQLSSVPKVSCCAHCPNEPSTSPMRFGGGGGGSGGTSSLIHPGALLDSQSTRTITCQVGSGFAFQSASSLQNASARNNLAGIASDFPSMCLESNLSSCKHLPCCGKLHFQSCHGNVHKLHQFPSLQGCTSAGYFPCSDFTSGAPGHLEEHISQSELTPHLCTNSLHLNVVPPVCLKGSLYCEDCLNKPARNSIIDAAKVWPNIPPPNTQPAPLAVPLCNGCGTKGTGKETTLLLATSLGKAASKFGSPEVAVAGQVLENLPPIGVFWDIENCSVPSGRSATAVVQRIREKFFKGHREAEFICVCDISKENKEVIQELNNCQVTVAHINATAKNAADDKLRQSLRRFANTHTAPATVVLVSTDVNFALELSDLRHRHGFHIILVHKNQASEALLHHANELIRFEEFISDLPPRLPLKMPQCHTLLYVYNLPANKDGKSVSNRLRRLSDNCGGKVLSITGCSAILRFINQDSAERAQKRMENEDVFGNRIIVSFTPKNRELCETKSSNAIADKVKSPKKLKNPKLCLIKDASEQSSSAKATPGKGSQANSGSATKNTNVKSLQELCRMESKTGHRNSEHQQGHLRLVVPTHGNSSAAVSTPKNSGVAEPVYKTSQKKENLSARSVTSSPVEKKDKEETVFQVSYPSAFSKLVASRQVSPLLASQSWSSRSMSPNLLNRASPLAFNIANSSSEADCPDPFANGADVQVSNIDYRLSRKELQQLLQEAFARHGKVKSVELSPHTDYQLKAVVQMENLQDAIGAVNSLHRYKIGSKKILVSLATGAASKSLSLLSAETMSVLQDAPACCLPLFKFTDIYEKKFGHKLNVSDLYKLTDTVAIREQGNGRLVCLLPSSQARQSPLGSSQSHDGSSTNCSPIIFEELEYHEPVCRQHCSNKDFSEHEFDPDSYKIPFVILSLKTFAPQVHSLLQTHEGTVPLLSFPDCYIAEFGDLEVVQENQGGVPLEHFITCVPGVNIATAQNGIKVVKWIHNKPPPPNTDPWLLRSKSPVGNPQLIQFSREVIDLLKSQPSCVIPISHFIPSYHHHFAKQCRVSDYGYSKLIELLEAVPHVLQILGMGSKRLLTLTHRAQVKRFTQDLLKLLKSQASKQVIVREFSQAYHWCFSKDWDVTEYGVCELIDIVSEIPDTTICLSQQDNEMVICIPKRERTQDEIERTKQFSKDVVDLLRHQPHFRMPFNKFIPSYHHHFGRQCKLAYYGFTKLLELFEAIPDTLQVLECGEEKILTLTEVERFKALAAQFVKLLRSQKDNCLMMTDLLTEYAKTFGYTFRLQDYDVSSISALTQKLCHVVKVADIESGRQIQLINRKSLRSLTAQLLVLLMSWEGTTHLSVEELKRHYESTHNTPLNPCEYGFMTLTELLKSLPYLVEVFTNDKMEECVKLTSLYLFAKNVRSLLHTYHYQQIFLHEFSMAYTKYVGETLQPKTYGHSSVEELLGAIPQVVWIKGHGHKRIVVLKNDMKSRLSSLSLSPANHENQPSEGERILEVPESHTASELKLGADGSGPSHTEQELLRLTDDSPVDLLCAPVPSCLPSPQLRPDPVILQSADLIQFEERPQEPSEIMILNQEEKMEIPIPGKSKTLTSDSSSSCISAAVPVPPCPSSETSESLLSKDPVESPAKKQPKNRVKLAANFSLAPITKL
UniProt Q9Y2S6, whole entry: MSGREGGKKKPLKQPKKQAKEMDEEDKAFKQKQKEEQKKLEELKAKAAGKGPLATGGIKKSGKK

Compound: Nc1ncnc2c1ncn2[C@@H]1O[C@H](COP(=O)(O)OP(=O)(O)OP(=O)(O)O)[C@@H](O)[C@H]1O [adenosine triphosphate]
Experiment: NP40-soluble protein abundance relative to vehicle (solubility fold change) (ratio); higher = more soluble protein in presence of ATP
In short: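 Across three independent experiments, values are fold changes against the detergent-processed vehicle for each replicate, based on vsn-normalised intensities. The samples were Jurkat crude lysate treated with eight concentrations (0.1 to 10 mM) for 10 min at room temperature and then 3 min at 37 °C. Lysate was solubilised with 0.8% NP40 and benzonase, ultracentrifuged, and the supernatant analysed by TMT-labelled LC-MS/MS.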

Target	NP40-soluble protein abundance (concentration: 0.1mM)	NP40-soluble protein abundance (concentration: 0.5mM)
UniProt Q9Y2Q5 and related entries	0.838 ± 0.083	0.803 ± 0.18
CAPN7 (UniProt Q9Y6W3)	1.07 ± 0.055	1.06 ± 0.084
ARIH1 (UniProt Q9Y4X5)	1.06 ± 0.11	1.02 ± 0.07
ORC6 (UniProt Q9Y5N6)	0.962 ± 0.054	0.97 ± 0.048
ICE1 (UniProt Q9Y2F5)	1 ± 0.17	1.22 ± 0.29
RABGAP1 (UniProt Q9Y3P9)	0.991 ± 0.018	1.01 ± 0.053
R4GMR5 and related entries (UniProt P48556)	0.909 ± 0.044	0.87 ± 0.069
UniProt Q9Y5U2 and related entries	0.917 ± 0.093	0.865 ± 0.14
SAR1B (UniProt Q9Y6B6)	1.09 ± 0.06	1.09 ± 0.04
UniProt Q9Y697 and related entries	1.01 ± 0.032	0.999 ± 0.028
UniProt Q9Y3P8 and related entries	0.912 ± 0.097	0.921 ± 0.045
UniProt Q9Y3R5 and related entries	1.01 ± 0.051	1.01 ± 0.041
UniProt Q9Y679 and related entries	1.01 ± 0.038	0.999 ± 0.056
OAS3 (UniProt Q9Y6K5)	1.05 ± 0.073	1.01 ± 0.059
UniProt Q9Y4C2 and related entries	1.13 ± 0.18	0.988 ± 0.025
UniProt Q9Y4P1 and related entries	1.04 ± 0.14	1.03 ± 0.058
SNX8 (UniProt Q9Y5X2)	0.997 ± 0.049	0.984 ± 0.033
UniProt Q9Y3E7 and related entries	1.07 ± 0.14	1.2 ± 0.075
UniProt Q9Y3C4 and related entries	0.984 ± 0.032	0.991 ± 0.054
UniProt Q9Y2I8 and related entries	1.01 ± 0.022	1.02 ± 0.052
YTHDF2 (UniProt Q9Y5A9)	0.9923 ± 0.0056	1.006 ± 0.0088
TLN1 (UniProt Q9Y490)	0.994 ± 0.023	1 ± 0.052
UniProt Q9Y6X9 and related entries	0.993 ± 0.039	1.055 ± 0.008
ATP11B (UniProt Q9Y2G3)	1.11 ± 0.089	1.06 ± 0.086

Target	NP40-soluble protein abundance (concentration: 0.1mM)	NP40-soluble protein abundance (concentration: 0.5mM)
UniProt Q9Y450 and related entries	1.02 ± 0.054	1.03 ± 0.053
TRAF6 (UniProt Q9Y4K3)	1.1 ± 0.16	1.2 ± 0.26
RCL1 (UniProt Q9Y2P8)	1.01 ± 0.15	1.06 ± 0.08
UniProt Q9Y606 and related entries	0.992 ± 0.049	0.985 ± 0.044
RNF114 (UniProt Q9Y508)	1.06 ± 0.073	1.06 ± 0.079
SH3BP1 (UniProt Q9Y3L3)	0.987 ± 0.05	0.987 ± 0.059
UniProt Q9Y4G8 and related entries	1.03 ± 0.049	1.03 ± 0.082
GOLT1B (UniProt Q9Y3E0)	1.08 ± 0.14	1.01 ± 0.072
CARHSP1 (UniProt Q9Y2V2)	0.908 ± 0.026	0.89 ± 0.023
HSPB11 (UniProt Q9Y547)	1.06 ± 0.11	1.08 ± 0.024
UniProt Q9Y4B5 and related entries	0.993 ± 0.065	1.06 ± 0.015
SRPRB (UniProt Q9Y5M8)	1.01 ± 0.034	1.05 ± 0.043
UniProt Q9Y3C1 and related entries	0.991 ± 0.077	0.873 ± 0.1
NME7 (UniProt Q9Y5B8)	1 ± 0.099	0.995 ± 0.078
UniProt Q9Y692 and related entries	0.973 ± 0.05	1.02 ± 0.011
UniProt Q9Y5B6 and related entries	0.929 ± 0.032	1.03 ± 0.031
WBP11 (UniProt Q9Y2W2)	0.9644 ± 0.0085	1.04 ± 0.027
NDUFAF1 (UniProt Q9Y375)	1.03 ± 0.059	1.02 ± 0.033
TAF6L (UniProt Q9Y6J9)	1.03 ± 0.076	0.977 ± 0.063
UniProt Q9Y394 and related entries	1.04 ± 0.015	1.04 ± 0.016
UniProt Q9Y2X7 and related entries	1.01 ± 0.055	1.01 ± 0.058
UniProt Q9Y3U8	0.984 ± 0.11	0.953 ± 0.067
UniProt Q9Y2K1 and related entries	1.06 ± 0.034	1.09 ± 0.054
UniProt Q9Y3D0	0.909 ± 0.08	0.869 ± 0.12

Quoted at random: five records from the list, in no set order.
Target	NP40-soluble protein abundance (concentration: 0.1mM)	NP40-soluble protein abundance (concentration: 0.5mM)
UniProt Q9Y697 and related entries	1.01 ± 0.032	0.999 ± 0.028
SH3BP1 (UniProt Q9Y3L3)	0.987 ± 0.05	0.987 ± 0.059
UniProt Q9Y5B6 and related entries	0.929 ± 0.032	1.03 ± 0.031
SAR1B (UniProt Q9Y6B6)	1.09 ± 0.06	1.09 ± 0.04
TLN1 (UniProt Q9Y490)	0.994 ± 0.023	1 ± 0.052

The results go on:

Target	NP40-soluble protein abundance (concentration: 0.1mM)	NP40-soluble protein abundance (concentration: 0.5mM)
SLC30A1 (UniProt Q9Y6M5)	0.942 ± 0.14	0.997 ± 0.057
UniProt Q9Y2S0 and related entries	0.993 ± 0.072	0.967 ± 0.089
UBE2J1 (UniProt Q9Y385)	0.991 ± 0.053	0.997 ± 0.036
PRKAB1 (UniProt Q9Y478)	1.02 ± 0.034	0.972 ± 0.032
UniProt Q9Y3D8 and related entries	1.07 ± 0.062	0.983 ± 0.12
UniProt Q9Y320 and related entries	1.04 ± 0.052	1.01 ± 0.078
UniProt Q9Y2H6 and related entries	1.04 ± 0.075	1.05 ± 0.062
TIMM22 (UniProt Q9Y584)	0.854 ± 0.09	0.849 ± 0.15
UniProt Q9Y4F3 and related entries	0.931 ± 0.1	0.982 ± 0.011
MAD1L1 (UniProt Q9Y6D9)	1.02 ± 0.017	1 ± 0.076
POLR3K (UniProt Q9Y2Y1)	0.91 ± 0.18	0.902 ± 0.2
YARS2 (UniProt Q9Y2Z4)	1.08 ± 0.1	1.03 ± 0.055
UniProt Q9Y6M9 and related entries	0.929 ± 0.043	0.893 ± 0.072
UniProt Q9Y4E6 and related entries	1 ± 0.059	1 ± 0.06
UniProt Q9Y2L9-2|Q9Y2L9 and related entries	0.926 ± 0.062	0.935 ± 0.038
ASB1 (UniProt Q9Y576)	0.961 ± 0.051	0.937 ± 0.11
AP3M1 (UniProt Q9Y2T2)	0.964 ± 0.088	0.957 ± 0.058
UniProt Q9Y4P8 and related entries	1.04 ± 0.093	1 ± 0.019
UniProt Q9Y2H1	1.06 ± 0.034	1.12 ± 0.066
SUPT16H (UniProt Q9Y5B9)	1 ± 0.029	1.05 ± 0.02
UniProt Q9Y2Z0 and related entries	0.996 ± 0.025	1.01 ± 0.023
UniProt Q9Y2S6	1.1 ± 0.097	1.08 ± 0.03
UniProt Q9Y3F4 and related entries	1.01 ± 0.05	1.06 ± 0.064
INPP5F (UniProt Q9Y2H2)	1.11 ± 0.069	1.02 ± 0.045

Target	NP40-soluble protein abundance (concentration: 0.1mM)	NP40-soluble protein abundance (concentration: 0.5mM)
TELO2 (UniProt Q9Y4R8)	1.02 ± 0.086	1.01 ± 0.046
AP4B1 (UniProt Q9Y6B7)	1.06 ± 0.086	1.03 ± 0.03
UniProt Q9Y2L5 and related entries	1.05 ± 0.039	1.03 ± 0.022
ATP6V0A2 (UniProt Q9Y487)	1.08 ± 0.056	1.02 ± 0.024
MRPS23 (UniProt Q9Y3D9)	0.913 ± 0.16	0.858 ± 0.13
WASF2 (UniProt Q9Y6W5)	0.972 ± 0.048	0.963 ± 0.077
NISCH (UniProt Q9Y2I1)	1.02 ± 0.021	0.989 ± 0.055
UniProt Q9Y678	1.02 ± 0.062	1.03 ± 0.032
UniProt Q9Y6A4	1.02 ± 0.15	1.06 ± 0.099
SNX5 (UniProt Q9Y5X3)	1.02 ± 0.038	1.03 ± 0.039
UniProt Q9Y371 and related entries	0.995 ± 0.02	0.967 ± 0.025
UTP18 (UniProt Q9Y5J1)	1.01 ± 0.035	1.1 ± 0.071
UniProt Q9Y5L4 and related entries	0.908 ± 0.08	0.885 ± 0.13
UniProt Q9Y4W2 and related entries	0.951 ± 0.057	0.973 ± 0.052
UniProt Q9Y5Q8 and related entries	1.04 ± 0.015	1.028 ± 0.0098
UTP11 (UniProt Q9Y3A2)	0.928 ± 0.052	0.972 ± 0.045
TIMM9 (UniProt Q9Y5J7)	0.95 ± 0.11	0.908 ± 0.078
SPCS1 (UniProt Q9Y6A9)	0.954 ± 0.066	0.9944 ± 0.0046
UniProt Q9Y2Y0 and related entries	1.04 ± 0.056	0.999 ± 0.094
UniProt Q9Y6Q9 and related entries	0.994 ± 0.03	0.984 ± 0.021
UniProt Q9Y3Q8 and related entries	0.993 ± 0.035	0.948 ± 0.075
MSRB2 (UniProt Q9Y3D2)	0.973 ± 0.1	0.986 ± 0.075
UniProt Q9Y680 and related entries	1.02 ± 0.087	0.996 ± 0.058
IVNS1ABP (UniProt Q9Y6Y0)	1.02 ± 0.038	1.05 ± 0.078

Target	NP40-soluble protein abundance (concentration: 0.1mM)	NP40-soluble protein abundance (concentration: 0.5mM)
UniProt Q9Y6N5	1.06 ± 0.069	1.06 ± 0.06
UniProt Q9Y5L0 and related entries	0.985 ± 0.065	0.994 ± 0.03
USP20 (UniProt Q9Y2K6)	0.9997 ± 0.0093	1.04 ± 0.045
TMED7 (UniProt Q9Y3B3)	1.03 ± 0.11	0.97 ± 0.019
UniProt Q9Y4B6 and related entries	1.01 ± 0.046	0.999 ± 0.047
TACC3 (UniProt Q9Y6A5)	0.974 ± 0.014	0.97 ± 0.034
ATP6V1D (UniProt Q9Y5K8)	0.997 ± 0.018	0.971 ± 0.03
MYH15 (UniProt Q9Y2K3)	1 ± 0.065	1.05 ± 0.012
HCFC2 (UniProt Q9Y5Z7)	1.05 ± 0.066	1 ± 0.13
UniProt Q9Y2C4 and related entries	1.05 ± 0.037	1.06 ± 0.1
UniProt Q9Y4D1 and related entries	0.979 ± 0.031	0.965 ± 0.043
UniProt Q9Y2Q0 and related entries	1.01 ± 0.061	1.02 ± 0.015
PSAT1 (UniProt Q9Y617)	0.972 ± 0.033	0.978 ± 0.012
R4GN35 and related entries (UniProt Q5VZ89)	1 ± 0.028	0.983 ± 0.032
KPTN (UniProt Q9Y664)	1.01 ± 0.051	1.06 ± 0.12
NOC2L (UniProt Q9Y3T9)	1.02 ± 0.049	1.04 ± 0.045
CD2AP (UniProt Q9Y5K6)	1 ± 0.063	1.02 ± 0.087
UniProt Q9Y333	0.923 ± 0.014	0.954 ± 0.088
DIS3 (UniProt Q9Y2L1)	1.06 ± 0.062	1.03 ± 0.06
UniProt Q9Y5W9 and related entries	0.959 ± 0.064	0.936 ± 0.18
FIS1 (UniProt Q9Y3D6)	0.998 ± 0.084	0.917 ± 0.16
UniProt Q9Y2I7 and related entries	1.01 ± 0.021	1.01 ± 0.043
UniProt Q9Y3B4	1 ± 0.1	0.998 ± 0.11
LEMD3 (UniProt Q9Y2U8)	1.05 ± 0.011	0.991 ± 0.012
